Data reported in patent publication US7888025B2, “Intestinal folate transporter method” (Albert Einstein College of Medicine of Yeshiva University, priority 2007, dated 2011).
Some entries share one result that the patent states for a list of compounds.

Experiments:
Assay type in all cases: cell-based
G21 (PCFT) [1] = target: T1, G21 (PCFT) (Homo sapiens, UniProt Q96NT5); assay: Initial uptake of tritiated folates in HepG2 cells stably transfected with G21 cDNA; conditions: 0.5 μM tritiated substrate, pH 5.5, 37° C.
T1 construct: expressed in transfected cells; host or cells: Xenopus laevis oocytes injected with capped G21 cRNA (pSPT64, SP6)
T1 sequence (Q96NT5 1-459): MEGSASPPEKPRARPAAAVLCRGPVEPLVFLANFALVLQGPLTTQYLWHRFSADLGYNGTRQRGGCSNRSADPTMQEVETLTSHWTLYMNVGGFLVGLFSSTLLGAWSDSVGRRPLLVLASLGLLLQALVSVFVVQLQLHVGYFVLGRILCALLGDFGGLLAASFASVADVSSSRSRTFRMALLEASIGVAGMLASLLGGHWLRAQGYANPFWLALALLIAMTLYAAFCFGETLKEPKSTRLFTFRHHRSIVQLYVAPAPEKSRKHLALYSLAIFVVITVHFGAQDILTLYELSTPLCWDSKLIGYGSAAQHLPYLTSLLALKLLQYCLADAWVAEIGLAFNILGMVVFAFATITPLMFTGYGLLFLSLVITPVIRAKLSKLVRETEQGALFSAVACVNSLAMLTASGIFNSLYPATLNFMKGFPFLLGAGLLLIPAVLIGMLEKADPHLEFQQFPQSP

G21 (PCFT) [2] = target: T1, G21 (PCFT); assay: Uptake of tritiated folates in G21 cRNA-injected Xenopus oocytes; conditions: 2 μM tritiated substrate, pH 5.5, 30 min
Description: Uptake studies in Xenopus oocytes. Defolliculated Xenopus laevis oocytes were prepared as described (Jansen and Akabas, 2006) and injected with 50 nl of water or G21 cRNA (30 ng). Radiotracer uptake was determined 3 or 4 days later. Seven to 10 oocytes were incubated in 500 μl of Modified Barth's Solution (MBS, in mM, 88 NaCl, 2.4 NaHCO3, 2.5 Na pyruvate, 1 KCl, 0.82 MgSO4, 0.41 CaCl2, 0.3 Ca(NO3)2, 15 MES or HEPES) and uptake of tritiated folate substrates assessed at room temperature. Uptake was halted by the addition of ice-cold MBS (pH 7.5). Oocytes were washed 10 times thereafter, and solubilized with 10% SDS for measurement of radioactivity. To collapse the pH gradient across the oocyte membrane, seven to 10 oocytes were incubated in MBS (pH 5.5) containing 0, 10, 20, 40, 60 μM FCCP for 20 min, and uptake of transport substrates assessed at pH 5.5.

G21 (PCFT) [3] = target: T1, G21 (PCFT); assay: Two-electrode voltage-clamp electrophysiology in G21 cRNA-injected Xenopus oocytes; conditions: −80 mV holding potential, pH 5.5, 20-25 times the Km
Description: Electrophysiological analyses in Xenopus oocytes. Defolliculated oocytes were injected with 50 nl of water (control) or G21 cRNA (50 ng), and kept at 17° C. in horse serum medium (in mM, 82.5 NaCl, 2.5 KCl, 1 MgCl2, 2.3 CaCl2, 5 HEPES, 5% horse serum, pH 7.5). Electrophysiological recordings were conducted 3-7 days after cRNA injection in buffer (in mM, 90 NaCl, 1 KCl, 1 MgCl2, 1.8 CaCl2, 5 TRIS, 5 MES) as described previously (Jansen and Akabas, 2006). Oocyte holding potential was −80 mV for Km determination. For current-voltage (I-V) relationships, from a −60 mV holding potential step changes in membrane potential were applied for 2 s in 10 mV increments between −100 and 30 mV in the absence and presence of substrate.

G21 (PCFT) [4] = target: T1, G21 (PCFT); assay: Initial uptake of tritiated folates in HeLa cells transiently transfected with G21 cDNA; conditions: 0.5 μM tritiated substrate, pH 5.5, 37° C.

Nc1nc2ncc(CNc3ccc(C(=O)N[C@@H](CCC(=O)O)C(=O)O)cc3)nc2c(=O)[nH]1 [folic acid]
increase of uptake versus mock-transfected HepG2 cells (G21 (PCFT) [1]): > 30 fold
increase of uptake versus water-injected oocytes (G21 (PCFT) [2]): > 200 fold
substrate-induced current (G21 (PCFT) [3]): up to 80 nA
increase of uptake versus mock-transfected HeLa cells (G21 (PCFT) [4]): > 13 fold
